Publication PMC5908793
These are yes or no findings as the source states them, for the method shown. For some of these results: In cells and extracts the contact can be indirect. Some results given as binding are weak or reduced against the parent protein; the word gives no strength.

Amino acid sequences for entries named in this document (tags omitted). A change or cut given only in a name is not applied to a line headed by its entry.
UniProt Q921J4: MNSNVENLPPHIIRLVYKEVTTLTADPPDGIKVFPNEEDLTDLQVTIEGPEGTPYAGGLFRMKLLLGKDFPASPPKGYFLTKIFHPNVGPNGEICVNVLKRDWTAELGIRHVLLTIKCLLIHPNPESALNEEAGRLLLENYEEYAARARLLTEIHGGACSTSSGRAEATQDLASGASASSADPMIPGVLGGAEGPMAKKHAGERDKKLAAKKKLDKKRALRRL
UniProt Q16763: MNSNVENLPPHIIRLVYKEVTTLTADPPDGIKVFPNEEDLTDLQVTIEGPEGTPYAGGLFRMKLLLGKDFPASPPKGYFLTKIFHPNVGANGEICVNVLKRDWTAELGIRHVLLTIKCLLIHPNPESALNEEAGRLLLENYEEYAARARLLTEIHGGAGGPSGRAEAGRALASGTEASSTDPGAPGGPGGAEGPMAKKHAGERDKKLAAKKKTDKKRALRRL
UniProt A2A6Q5: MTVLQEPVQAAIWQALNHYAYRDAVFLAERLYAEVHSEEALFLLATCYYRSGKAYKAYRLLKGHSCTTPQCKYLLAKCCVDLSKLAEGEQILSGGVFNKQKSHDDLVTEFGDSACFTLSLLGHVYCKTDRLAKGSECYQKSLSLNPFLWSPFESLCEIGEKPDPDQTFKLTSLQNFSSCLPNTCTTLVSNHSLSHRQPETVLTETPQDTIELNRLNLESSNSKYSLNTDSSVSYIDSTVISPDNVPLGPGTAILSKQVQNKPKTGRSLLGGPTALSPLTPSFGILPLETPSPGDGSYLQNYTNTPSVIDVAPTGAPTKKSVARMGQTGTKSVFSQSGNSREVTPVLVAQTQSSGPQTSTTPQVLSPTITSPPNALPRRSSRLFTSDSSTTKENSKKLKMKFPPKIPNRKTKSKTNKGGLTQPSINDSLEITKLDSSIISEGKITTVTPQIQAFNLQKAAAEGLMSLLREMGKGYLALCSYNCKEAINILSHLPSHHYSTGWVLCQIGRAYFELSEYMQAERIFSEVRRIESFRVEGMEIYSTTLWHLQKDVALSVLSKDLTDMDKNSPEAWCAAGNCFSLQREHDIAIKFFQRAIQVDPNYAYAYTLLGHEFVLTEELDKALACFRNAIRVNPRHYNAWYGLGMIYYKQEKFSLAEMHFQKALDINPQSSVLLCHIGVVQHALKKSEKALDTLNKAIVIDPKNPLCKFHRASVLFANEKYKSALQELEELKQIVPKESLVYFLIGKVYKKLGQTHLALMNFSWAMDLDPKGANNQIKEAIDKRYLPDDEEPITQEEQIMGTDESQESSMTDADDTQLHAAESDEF
UniProt Q02248: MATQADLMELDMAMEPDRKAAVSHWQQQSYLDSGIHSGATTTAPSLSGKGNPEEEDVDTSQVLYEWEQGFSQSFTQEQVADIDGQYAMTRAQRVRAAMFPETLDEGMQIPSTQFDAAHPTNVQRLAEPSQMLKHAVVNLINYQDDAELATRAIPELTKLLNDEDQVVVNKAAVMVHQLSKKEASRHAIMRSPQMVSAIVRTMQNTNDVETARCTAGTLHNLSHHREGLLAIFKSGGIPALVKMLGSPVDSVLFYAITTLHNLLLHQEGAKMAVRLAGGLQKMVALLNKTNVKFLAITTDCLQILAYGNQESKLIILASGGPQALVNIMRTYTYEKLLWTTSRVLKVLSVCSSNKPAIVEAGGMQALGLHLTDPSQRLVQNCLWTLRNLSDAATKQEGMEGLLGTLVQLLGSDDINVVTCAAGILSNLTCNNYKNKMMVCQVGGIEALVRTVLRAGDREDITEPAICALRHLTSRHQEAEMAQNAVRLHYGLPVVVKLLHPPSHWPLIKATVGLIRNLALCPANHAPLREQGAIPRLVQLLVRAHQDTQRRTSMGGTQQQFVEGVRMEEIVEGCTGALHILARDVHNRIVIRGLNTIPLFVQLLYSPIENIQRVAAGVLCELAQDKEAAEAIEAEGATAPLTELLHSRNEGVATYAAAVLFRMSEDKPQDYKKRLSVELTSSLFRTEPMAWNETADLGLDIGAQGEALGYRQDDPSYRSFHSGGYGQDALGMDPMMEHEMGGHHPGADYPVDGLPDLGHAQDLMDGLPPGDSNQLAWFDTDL
UniProt P35222: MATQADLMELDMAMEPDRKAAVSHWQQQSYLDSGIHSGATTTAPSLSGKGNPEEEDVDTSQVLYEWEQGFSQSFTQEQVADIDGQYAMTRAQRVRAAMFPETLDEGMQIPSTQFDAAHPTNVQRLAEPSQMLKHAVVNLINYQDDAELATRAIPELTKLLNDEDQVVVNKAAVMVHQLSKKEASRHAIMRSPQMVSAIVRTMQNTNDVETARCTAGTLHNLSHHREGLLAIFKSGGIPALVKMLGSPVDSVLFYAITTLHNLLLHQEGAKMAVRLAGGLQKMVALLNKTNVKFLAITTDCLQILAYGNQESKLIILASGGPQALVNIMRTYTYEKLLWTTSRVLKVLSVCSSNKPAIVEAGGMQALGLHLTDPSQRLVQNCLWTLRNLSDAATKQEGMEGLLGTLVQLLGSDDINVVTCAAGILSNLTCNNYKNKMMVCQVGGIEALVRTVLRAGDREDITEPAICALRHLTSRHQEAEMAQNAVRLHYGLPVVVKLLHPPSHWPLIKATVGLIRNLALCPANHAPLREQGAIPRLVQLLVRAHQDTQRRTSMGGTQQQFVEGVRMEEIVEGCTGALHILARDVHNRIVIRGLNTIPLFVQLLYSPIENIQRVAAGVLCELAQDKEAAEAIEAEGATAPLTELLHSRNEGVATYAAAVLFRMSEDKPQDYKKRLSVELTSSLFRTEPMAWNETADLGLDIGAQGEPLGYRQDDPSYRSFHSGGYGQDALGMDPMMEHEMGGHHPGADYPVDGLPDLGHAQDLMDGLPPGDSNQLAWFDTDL

Assays:
[1] = target: Glutathione S-transferase (GST)-tagged Ube2s (not stated (human or mouse cDNA cloned)) (UniProt Q921J4); test: pull-down; purified GST-tagged Ube2s on glutathione-sepharose beads, incubated with purified His-tagged β-Catenin at 4 °C overnight; washed four times with lysis buffer; western blot with anti-β-Catenin and anti-GST; GST alone as control; both purified
[2] = target: UBE2S, human, endogenous (human (endogenous in HCT116 and 293 cells)) (UniProt Q16763); test: co-IP; human embryonic kidney 293 cells
[3] = target: UBE2S, human, endogenous (human (endogenous in HCT116 and 293 cells)) (UniProt Q16763); test: co-IP; HCT116 cells; UBE2S and β-CATENIN
[4] = target: Ub-conjugating enzyme E2S (Ube2s), mouse, endogenous (mouse (endogenous in mES cells and F9 cells)) (UniProt Q921J4); test: co-IP; cytoplasm and nuclear extracts of mES cells, each taken for co-IP
[5] = target: Ub-conjugating enzyme E2S (Ube2s), mouse, endogenous (mouse (endogenous in mES cells and F9 cells)) (UniProt Q921J4); test: co-IP; pluripotent F9 teratoma cells
[6] = target: Cdc27 subunit of APC/C (mouse (endogenous in mES cells)) (UniProt A2A6Q5); test: co-IP; mES cells; β-Catenin and Cdc27
[7] = target: Ub-conjugating enzyme E2S (Ube2s), mouse, endogenous (mouse (endogenous in mES cells and F9 cells)) (UniProt Q921J4); test: co-IP; whole cell extracts of mES cells; IP with the antibody against Ube2s or β-Catenin, western blot for the other; Protein-G beads, 4 °C overnight, NP40 lysis buffer washes

## His6-tagged β-Catenin (from UniProt Q02248 1-781)
[1]
  binding: binds

## β-CATENIN, human, endogenous (from UniProt P35222 1-781)
[2]
  binding: binds
[3]
  binding: binds

## β-Catenin, mouse, endogenous (from UniProt Q02248 1-781)
[4]
  binding: binds
[5]
  binding: binds
[6]
  binding: binds
[7]
  binding: binds
